Results as given in the supplement of paper PMC4635364.
Structures can show the parent of a compound that is named as a salt. This is one part of the list. This data set is noisy: repeats of one test often differ as much as different tests do.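 Human fetal ventral-midbrain neural progenitor line ReNCell VM, differentiated without mitogens. Images stained for doublecortin (early neurons) or tyrosine hydroxylase (dopaminergic neurons) were scored by blinded raters against untreated wells (0 = no change). Repeats and both raters were averaged, and compounds averaging 2 or higher were picked as hits for retesting.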

Columns and labels:
ReNCell VM [1] = assay: neuronal differentiation score (DCX+ cell fraction vs untreated, manual image score) (score (-3 to 3)); higher = more neuronal differentiation; conditions: 2 uM, 2 weeks
ReNCell VM [2] = assay: dopaminergic neuron differentiation score (TH+ cell fraction vs untreated, manual image score) (score (0 to 3)); higher = more TH+ dopaminergic neuron differentiation; conditions: 2 uM, 4 weeks, BDNF 10 ng/ml + GDNF 10 ng/ml

CC(N)C(O)c1ccc(O)c(O)c1 (single isomer, unassigned; (-)) [(-)-alpha-Methylnorepinephrine]
neuronal differentiation score (ReNCell VM [1]; library: LOPAC): inactive: 1
dopaminergic neuron differentiation score (ReNCell VM [2]; library: LOPAC): inactive: 0

N[C@@H]1C[C@H]1c1ccccc1.N[C@H]1C[C@@H]1c1ccccc1
neuronal differentiation score (ReNCell VM [1]; library: Spectrum): inactive: -3
dopaminergic neuron differentiation score (ReNCell VM [2]; library: Spectrum): inactive: 0

Clc1cccc(SC2CCNCC2)n1 [Anpirtoline hydrochloride]
neuronal differentiation score (ReNCell VM [1]; library: Tocriscreen): inactive: 0
dopaminergic neuron differentiation score (ReNCell VM [2]; library: Tocriscreen): inactive: 1

CCC(=O)O[C@@](Cc1ccccc1)(c1ccccc1)[C@@H](C)CN(C)C [Levopropoxyphene napsylate]
neuronal differentiation score (ReNCell VM [1]; library: Prestwick): inactive: 0
dopaminergic neuron differentiation score (ReNCell VM [2]; library: Prestwick): inactive: 0

CC[C@@H]1CN2CC[C@@H]1C[C@H]2[C@H](O)c1ccnc2ccc(O)cc12 [Hydrocupreine]
neuronal differentiation score (ReNCell VM [1]; library: Phytochemical): inactive: 0
dopaminergic neuron differentiation score (ReNCell VM [2]; library: Phytochemical): inactive: 0

C[N+]1(C)CCc2cc3c(cc2[C@H]1[C@@H]1OC(=O)c2c1ccc1c2OCO1)OCO3
neuronal differentiation score (ReNCell VM [1]; library: Spectrum): inactive: 0
dopaminergic neuron differentiation score (ReNCell VM [2]; library: Spectrum): inactive: 0

CC1CC(Cl)CCC1C(=O)OC(C)(C)C (configuration not stated)
neuronal differentiation score (ReNCell VM [1]; library: Spectrum): inactive: 0
dopaminergic neuron differentiation score (ReNCell VM [2]; library: Spectrum): inactive: 0

CCNC1(c2cccs2)CCCCC1=O (configuration not stated) [Tiletamine hydrochloride]
neuronal differentiation score (ReNCell VM [1]; library: Prestwick): inactive: 0
dopaminergic neuron differentiation score (ReNCell VM [2]; library: Prestwick): inactive: 0

CCCC(C)C1(CC)C(=O)NC(=O)NC1=O (configuration not stated) [Pentobarbital]
neuronal differentiation score (ReNCell VM [1]; library: Prestwick): inactive: 0
dopaminergic neuron differentiation score (ReNCell VM [2]; library: Prestwick): inactive: 0

CN1[C@@H](C[C@@H](O)c2ccccc2)CCC[C@H]1C[C@H](O)c1ccccc1 [Lobelanidine hydrochloride]
neuronal differentiation score (ReNCell VM [1]; library: Phytochemical): inactive: 0
dopaminergic neuron differentiation score (ReNCell VM [2]; library: Phytochemical): inactive: 0

CCN1C[C@]2(C)CC[C@H](OC)C34C5C[C@@H]6CC[C@@](O)(C5C(=O)O6)C(C13)[C@@H](OC(=O)c1ccccc1)[C@@H]42 [6-benzoylheteratisine]
neuronal differentiation score (ReNCell VM [1]; library: Natural): inactive: 0
dopaminergic neuron differentiation score (ReNCell VM [2]; library: Natural): inactive: 0

CC[N+]1(C)CCCC(OC(=O)C(O)(c2ccccc2)c2ccccc2)C1 (configuration not stated)
neuronal differentiation score (ReNCell VM [1]; library: Spectrum): inactive: 0
dopaminergic neuron differentiation score (ReNCell VM [2]; library: Spectrum): inactive: 1

CCN1C[C@]2(COC(=O)c3ccccc3N3C(=O)C[C@H](C)C3=O)CC[C@H](OC)[C@@]34[C@@H]5C[C@H]6[C@H](OC)[C@@H]5[C@](O)(C[C@@H]6OC)[C@](O)([C@@H](OC)[C@H]23)[C@@H]14 [Methyllycaconitine citrate]
neuronal differentiation score (ReNCell VM [1]; library: Tocriscreen): inactive: 0
dopaminergic neuron differentiation score (ReNCell VM [2]; library: Tocriscreen): inactive: 0

CC(N)Cc1c[nH]c2ccc(OCc3cccs3)cc12 (configuration not stated) [BW 723C86 hydrochloride]
neuronal differentiation score (ReNCell VM [1]; library: Tocriscreen): inactive: 0
dopaminergic neuron differentiation score (ReNCell VM [2]; library: Tocriscreen): inactive: 0

C1CC[C@H]([C@]23C[C@@H](C[C@@H]4CCCN[C@H]42)[C@H]2CCCCN2C3)NC1 [ormosanine]
neuronal differentiation score (ReNCell VM [1]; library: Natural): inactive: 0
dopaminergic neuron differentiation score (ReNCell VM [2]; library: Natural): inactive: 0

C=CCc1ccc(OC)cc1
neuronal differentiation score (ReNCell VM [1]; library: Spectrum): inactive: 0
dopaminergic neuron differentiation score (ReNCell VM [2]; library: Spectrum): inactive: 0

COc1ccc(/C=C/c2cc(O)cc(O)c2)cc1
neuronal differentiation score (ReNCell VM [1]; library: Spectrum): inactive: 0
dopaminergic neuron differentiation score (ReNCell VM [2]; library: Spectrum): inactive: 0

C[N+]1([O-])[C@@H]2CC(OC(=O)[C@H](CO)c3ccccc3)C[C@H]1[C@@H]1O[C@@H]12 (some centres not stated) [Genoscopolamine HBr]
neuronal differentiation score (ReNCell VM [1]; library: Phytochemical): inactive: 0
dopaminergic neuron differentiation score (ReNCell VM [2]; library: Phytochemical): inactive: 0

Cc1cc(OC(=O)N2CCCCC2)c(C(C)C)cc1[N+](C)(C)C
neuronal differentiation score (ReNCell VM [1]; library: Spectrum): inactive: 0
dopaminergic neuron differentiation score (ReNCell VM [2]; library: Spectrum): inactive: 0

CN1[C@@H]2CC[C@H]1C[C@@H](OC1c3ccccc3CCc3ccccc31)C2 [Deptropine citrate]
neuronal differentiation score (ReNCell VM [1]; library: Prestwick): inactive: 0
dopaminergic neuron differentiation score (ReNCell VM [2]; library: Prestwick): inactive: 0

C[C@@H]1C(=O)O[C@H]2[C@H]1CC[C@@]1(C)C=CC(=O)[C@@]3(C)O[C@@]213 [EPOXY (4,5alpha)-4,5-DIHYDROSANTONIN]
neuronal differentiation score (ReNCell VM [1]; library: Spectrum): inactive: 0
dopaminergic neuron differentiation score (ReNCell VM [2]; library: Spectrum): inactive: 0
